Measured values published in PubChem BioAssay AID504834 (National Center for Advancing Translational Sciences (NCATS), 2011).
Several values for one entry are separate records, joined by “and”; a condition that tells them apart may be missing. Identical values can stand only once. About 22,000 (6.9%) of roughly 320,000 compounds were called active. The shares of active, inactive and inconclusive entries below differ from those in the screen. The call rests on the fitted dose curve; in most records, active means well fitted inhibition curve with a large enough effect; inconclusive means small, poorly fitted or top-dose-only effect, or another doubt; inactive means no such curve, though single readings can be large or run the other way. Where the call is inconclusive, the potency comes from a doubtful curve fit. Where a SMILES comes first, the peptide text is derived from it. The star is where a group is joined. Boc = CC(C)(C)OC(=O)*; OBn = c1ccc(CO*)cc1

Assay: Primary qHTS for delayed death inhibitors of the malarial parasite plastid, 96 hour incubation
Details: P. falciparum luciferase reporter growth; series mostly up to 28.7 µM; activity change, negative = inhibition: at the top concentration
Summary of the method: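 Parasite growth measured via integrated firefly luciferase reporter in P. falciparum. Infected erythrocytes at 2% hematocrit, 0.05% parasitemia final were treated 96 hours at 37 C under 5% CO2, and luminescence was read.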
On the % scale 0 is the no-effect control and ±100 the full control effect; potency means the concentration at half of the fitted maximal effect.

Q: With `NC(=S)N/N=C/c1coc2ccc(Br)cc2c1=O` as the compound, how does the “activity change, negative = inhibition” value read?
A: inactive: 25.7%

Q: Which “activity change, negative = inhibition” value does the source give for `C=CCC1(CC=C)CCCN1C(=O)CC1C(=O)NCCN1Cc1ccc(OC)c(OC)c1` (centres undefined) here?
A: inactive: -21.7%

Q: For `Cc1cc2ncn(/N=C/c3cc(Br)ccc3O)c2cc1C`, which Potency is on record?
A: inconclusive: 11.7 µM [inhibitor, single point]

Q: For `COC(=O)Cc1c[nH]c2cccc(OCC(O)CN(Cc3ccc([N+](=O)[O-])cc3)C(C)(C)C)c12` (centres undefined), which Potency is on record?
A: active: 3.29 µM

Q: With `c1ccc2c(CNc3ccc(CNc4ncn[nH]4)cc3)cccc2c1` as the compound, how does the Potency read?
A: inconclusive: 18.5 µM [inhibitor, single point]

Q: Which “activity change, negative = inhibition” value does the source give for `Cc1nn(-c2ccc(F)cc2)c(N)c1C1(O)C(=O)Nc2ccccc21` (centres undefined) here?
A: inactive: 16%

Q: Which Potency does the source give for `COc1cc(C2Nc3ccc4ncccc4c3C3=C2C(=O)CCC3)ccc1O` (centres undefined) here?
A: inconclusive: 0.586 µM [inhibitor, full curve, poor fit]

Q: For `COC(=O)C(CC(=O)c1ccc(Br)cc1)n1nc(C)cc1C` (centres undefined), which “activity change, negative = inhibition” value is on record?
A: inactive: 0.883%

Q: For `O=C(CCCc1ccccc1)NCCc1ccccc1`, which “activity change, negative = inhibition” value is on record?
A: inactive: 43%

Q: For `CC(=O)c1ccc(NC(=O)CN2CCCCCC2)cc1`, which “activity change, negative = inhibition” value is on record?
A: inactive: 32.1%

Q: Which Potency does the source give for `CCOC(=O)c1cc(-c2ccccc2)sc1NC(=O)C(C)OC(=O)c1cccc(S(=O)(=O)N(C)C)c1` (centres undefined) here?
A: inconclusive: 11.7 µM [inhibitor, single point]

Q: With `CN(C(=O)COC(=O)CCc1c[nH]c2ccccc12)C(c1ccccc1)c1ccccc1` as the compound, how does the Potency read?
A: active: 10.4 µM

Q: For `COc1cc2c(cc1OC)-c1cc3ccc(OC)c(OC)c3c[n+]1CC2`, which Potency is on record?
A: active: 0.165 µM

Q: Which “activity change, negative = inhibition” value does the source give for `Cc1cc(/C=N/NC(=O)C(O)(c2ccccc2)c2ccccc2)c(C)n1-c1ccc(C(=O)O)cc1` here?
A: inactive: -24.5%

Q: Which Potency does the source give for `COc1ccc(NC(=O)c2cc(-c3cc(Cl)ccc3O)n[nH]2)c(OC)c1` here?
A: inconclusive: 13.1 µM [inhibitor, single point]

Q: With `CCOC(=O)N1CCC(NC(=O)CS(=O)(=O)Cc2nc(-c3ccccc3Cl)oc2C)CC1` as the compound, how does the Potency read?
A: inconclusive: 9.28 µM [inhibitor, single point]

Q: Which Potency does the source give for `N/C(Cc1nc(-c2ccc(Br)cc2)cs1)=N\O` here?
A: inconclusive: 0.0738 µM [inhibitor, full curve, poor fit]

Q: With `C=CCn1c(SCC(=O)Nc2cc(NC(C)=O)ccc2OC)nnc1-c1cccnc1` as the compound, how does the Potency read?
A: inconclusive: 3.7 µM [inhibitor, partial curve]

Q: For `Cc1cc(C2C(C#N)=C(N)OC3=C2C(=O)CCC3)c(C)s1` (centres undefined), which Potency is on record?
A: inconclusive: 20.8 µM [inhibitor, partial curve, poor fit]

Q: Which Potency does the source give for `Cc1cccc(N2NC(=O)/C(=C/c3ccc(-c4ccc(Cl)c(C(=O)O)c4)o3)C2=O)c1` here?
A: inconclusive: 0.329 µM [inhibitor, partial curve, poor fit]

Q: For `O=C(COc1ccccc1C(=O)Nc1ccccc1)NCCc1ccccc1`, which Potency is on record?
A: inconclusive: 11.7 µM [inhibitor, single point]

Q: Which “activity change, negative = inhibition” value does the source give for `O=C(N/N=C/c1oc(O)c2ccccc12)c1ccccc1` here?
A: inactive: 28.8%

Q: Which “activity change, negative = inhibition” value does the source give for `COc1ccc(N2CCN(C(=O)c3ccc(OCc4c(C)noc4C)c(OC)c3)CC2)cc1` here?
A: inactive: 30.7%

Q: For `COC(=O)c1ccc(C(=S)N2CCOCC2)cc1`, which “activity change, negative = inhibition” value is on record?
A: inactive: -9.87%

Q: With `CC(C)OC(=O)Cn1c(=O)oc2ccccc21` as the compound, how does the Potency read?
A: active: 2.33 µM

Q: Which Potency does the source give for `COc1cc(/C=C/C(=O)Nc2cccc(S(=O)(=O)N3CCOCC3)c2)ccc1OCC#N` here?
A: inconclusive: 18.5 µM [inhibitor, single point]

Q: Which “activity change, negative = inhibition” value does the source give for `Cc1ccc(C2(C)NC(=O)N(CC(=O)Nc3ccc(-c4nc5ccc(C)cc5s4)cc3)C2=O)cc1` (centres undefined) here?
A: inactive: 144%

Q: Which “activity change, negative = inhibition” value does the source give for `Nc1ccc(O)c2c1C(=O)c1ccccc1C2=O` here?
A: inactive: 127%

Q: With `COc1cccc2c1OC1(C)CC2NC(=O)N1c1cccc(C(=O)Nc2ccc3c(c2)OCCO3)c1` (centres undefined) as the compound, how does the Potency read?
A: inconclusive: 4.15 µM [inhibitor, single point]

Q: For `Cc1ccc(Cl)cc1NC(=O)c1cnn2c1NC(c1ccco1)CC2C(F)(F)F` (centres undefined), which Potency is on record?
A: inconclusive: 0.0657 µM [inhibitor, full curve, poor fit]

Q: Which Potency does the source give for `O=C(CN1CCN(Cc2ccc(Cl)cc2)C1=O)NCCCN1CCOCC1` here?
A: inconclusive: 18.5 µM [inhibitor, single point]

Q: Which Potency does the source give for `COc1ccc(OC)c(C2c3[nH]c4ccccc4c3C[C@H]3C(=O)N(CCCOC(C)C)CC(=O)N23)c1` (some centres undefined) here?
A: active: 11.7 µM

Q: For `COc1ccccc1NC(=O)CCSc1nnc(-c2ccncc2)o1`, which “activity change, negative = inhibition” value is on record?
A: inactive: 1.46%

Q: Which Potency does the source give for `COc1cccc2cc3c(=O)n(-c4ccccc4)nc-3oc12` here?
A: inconclusive: 10.4 µM [inhibitor, partial curve, poor fit]

Q: With `COC(=O)c1sccc1NC(=O)Cc1ccc(OC)c(OC)c1` as the compound, how does the Potency read?
A: inconclusive: 18.5 µM [inhibitor, single point]

Q: For `CC(=O)c1ccc(-c2ccc(/C=C(/Sc3n[nH]c(C)n3)C(=O)O)o2)cc1`, which Potency is on record?
A: inconclusive: 4.65 µM [inhibitor, partial curve]

Q: Which “activity change, negative = inhibition” value does the source give for `COc1ccccc1C(=O)NCCC(=O)NCC(c1ccc(F)cc1)N1CCOCC1` (centres undefined) here?
A: inactive: 10.2%

Q: For `CN(C(=O)c1ccccc1C(=O)OCC(=O)c1ccc(F)c(F)c1)C1CCCCC1`, which Potency is on record?
A: inconclusive: 16.5 µM [inhibitor, single point]

Q: Which Potency does the source give for `Oc1ccc(Br)cc1C1Nc2ccccc2S1` (centres undefined) here?
A: inconclusive: 7.38 µM [inhibitor, partial curve, poor fit]

Q: For `CCC(C)NC(=O)Cn1c(=O)n(CCCCC(=O)NCc2ccco2)c(=O)c2ccccc21` (centres undefined), which Potency is on record?
A: inconclusive: 9.28 µM [inhibitor, partial curve, poor fit]

Q: With `CCN1CCN(CC(=O)Nc2ccc(OC(F)(F)F)cc2)CC1` as the compound, how does the “activity change, negative = inhibition” value read?
A: inactive: -18.1%

Q: With `CCOC(=O)C1CCN(C(=O)C(CCSC)NC(=O)c2ccccc2OC)CC1` (centres undefined) as the compound, how does the “activity change, negative = inhibition” value read?
A: inactive: -52.9%

Q: For `CC(C)CC(NC(=O)C(NC(=O)OC(C)(C)C)C(C)C)C(=O)NC(CCC(=O)OCc1ccccc1)C(N)=O` (stereo not drawn) (Boc-Val-Leu-Glu(OBn)-NH2; configuration not given here), which Potency is on record?
A: inconclusive: 1.47 µM [inhibitor, full curve]
